# Source: PubChem BioAssay AID588590 (National Center for Advancing Translational Sciences (NCATS), 2011)
# The chains behind the UniProt entries cited, without tags or fusion partners. Where a name states a change or a piece, a line headed by the entry shows the natural chain unless it says otherwise.
# UniProt Q9UNA4: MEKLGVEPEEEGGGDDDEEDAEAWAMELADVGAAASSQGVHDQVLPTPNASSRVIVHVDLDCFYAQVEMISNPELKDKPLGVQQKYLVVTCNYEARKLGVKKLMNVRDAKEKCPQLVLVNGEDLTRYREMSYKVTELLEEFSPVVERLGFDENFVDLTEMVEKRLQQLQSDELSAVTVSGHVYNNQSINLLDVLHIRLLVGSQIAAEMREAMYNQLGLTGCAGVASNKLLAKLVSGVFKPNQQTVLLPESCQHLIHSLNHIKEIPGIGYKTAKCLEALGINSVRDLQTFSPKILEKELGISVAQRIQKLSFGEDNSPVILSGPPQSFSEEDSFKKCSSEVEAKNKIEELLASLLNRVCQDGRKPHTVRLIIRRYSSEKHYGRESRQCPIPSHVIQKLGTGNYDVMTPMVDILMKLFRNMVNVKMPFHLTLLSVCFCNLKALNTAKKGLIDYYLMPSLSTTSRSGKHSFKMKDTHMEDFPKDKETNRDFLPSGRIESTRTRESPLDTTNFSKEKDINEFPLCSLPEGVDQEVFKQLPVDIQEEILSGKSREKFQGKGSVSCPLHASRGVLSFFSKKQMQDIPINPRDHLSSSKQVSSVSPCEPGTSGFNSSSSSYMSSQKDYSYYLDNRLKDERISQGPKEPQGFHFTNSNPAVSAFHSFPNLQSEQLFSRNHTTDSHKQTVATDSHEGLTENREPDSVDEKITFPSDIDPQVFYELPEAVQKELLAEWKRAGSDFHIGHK
# The campaign covered roughly 390,000 compounds. About 4,000 (1%) were called active. Inconclusive means that the source gave no clear call. Such entries were picked first, then a sample of the others. Calls follow the shape of the dose curve; as a rule, active = well fitted inhibition curve with a large enough effect; inconclusive = small, poorly fitted or top-dose-only effect, or another doubt; inactive = no such curve, though single readings can be large or run the other way. Where the call is inconclusive, the potency comes from a doubtful curve fit.
# Target: DNA polymerase iota (Homo sapiens) (UniProt Q9UNA4)
# Assay: qHTS for Inhibitors of Polymerase Iota
# Details: Pol iota fluorescent replication assay, 10 min; series mostly up to 115 µM
# Outline: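 Fluorescent replication assay read twice, at 0 min and 10 min after adding 50 nM (final) substrate. Enzyme (10 nM) and compounds were first incubated 15 min at room temperature; enzyme-free buffer wells were negative controls.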
# Potency is read from the fitted curve at half-maximal effect.
row,SMILES,Potency
1,CC(=O)c1ccc(NC(=O)c2ccc3c(Cl)c4c(nc3c2)CCCC4)cc1,"inconclusive: 56.2 µM [inhibitor, partial curve, poor fit]"
2,CC1CCCCN1CCNC(=O)CN1C(=O)COc2ccccc21 (configuration not stated),"inconclusive: 89.1 µM [inhibitor, single point]"
3,COc1cc(C2NC(=O)C(C#N)=C(Nc3cccc(C)c3)S2)ccc1O (configuration not stated),"inconclusive: 15.8 µM [inhibitor, partial curve, poor fit]"
4,CC(=O)c1ccc(-n2c(-c3cc(-c4ccco4)[nH]n3)n[nH]c2=S)cc1,inactive
5,CC(=O)C1=C(O)C(=O)N(c2ccc(Br)cc2)C1c1ccc(Br)cc1 (configuration not stated),"inconclusive: 79.4 µM [inhibitor, partial curve, poor fit]"
6,Cc1cc(C)n(CC(=O)n2nc(C)cc2C)n1,"inconclusive: 39.8 µM [inhibitor, single point]"
7,CCOc1ccc(CCNC(=O)C(CCC(N)=O)NC(=O)OCc2ccccc2)cc1OCC (configuration not stated),inactive
8,COCCNC(=O)C1CCN(S(=O)(=O)N2CCC3(CC2)OCCO3)CC1,"inconclusive: 70.8 µM [inhibitor, partial curve, poor fit]"
9,Cc1cccc(SCC(=O)Nc2ccccc2[N+](=O)[O-])c1,"inconclusive: 39.8 µM [inhibitor, single point]"
10,O=C(Oc1cccc2cccnc12)c1ccc2c(c1)OCCO2,"inconclusive: 12.6 µM [inhibitor, partial curve, poor fit]"
11,COC(=O)c1c(C)sc(-c2c(-c3ccc(OC)c(F)c3)[nH]c3c2c(=O)n(C)c(=O)n3C)c1O,"inconclusive: 89.1 µM [inhibitor, single point]"
12,CC(=O)Nc1ccc(S(=O)(=O)N(C)c2ccc(OCC(=O)OCC(=O)NCc3ccco3)cc2)cc1,"inconclusive: 50.1 µM [inhibitor, single point]"
13,COc1ccccc1Cc1noc(C(C)(C)NC(=O)c2ccccc2)n1,"inconclusive: 89.1 µM [inhibitor, partial curve, poor fit]"
14,CC/C(=N\NC(N)=O)c1ccc(OC(F)F)cc1,inactive
15,Cc1ccc(S(=O)(=O)N2CCN(c3nc(-c4ccc(F)cc4)nc4cc(Cl)ccc34)CC2)cc1,inactive
16,Cc1ccc(S(=O)(=O)N2CC[C@@H]2C(=O)O)cc1,"inconclusive: 89.1 µM [inhibitor, partial curve]"
17,Cn1cccc1C(=O)OCC(=O)c1cc2ccccc2o1,"inconclusive: 7.08 µM [inhibitor, partial curve, poor fit]"
18,Cn1cccc1-c1cc(C(=O)N/N=C/C=C/c2ccccc2)[nH]n1,"inconclusive: 17.8 µM [inhibitor, partial curve, poor fit]"
19,COc1ccc(-c2nc(C#N)c(NCCc3ccccc3)o2)cc1OC,"inconclusive: 39.8 µM [inhibitor, partial curve, poor fit]"
20,Cc1ccc(Nc2ccc(N)cc2S(=O)(=O)O)cc1,"inconclusive: 39.8 µM [inhibitor, partial curve, poor fit]"
21,CCOc1ccc(C(=O)C2CCN(C(=O)c3ccccc3C(=O)O)CC2)cc1,"inconclusive: 89.1 µM [inhibitor, partial curve, poor fit]"

# 3 consecutive entries already listed, for reference:
row,SMILES,Potency
2,CC1CCCCN1CCNC(=O)CN1C(=O)COc2ccccc21 (configuration not stated),"inconclusive: 89.1 µM [inhibitor, single point]"
3,COc1cc(C2NC(=O)C(C#N)=C(Nc3cccc(C)c3)S2)ccc1O (configuration not stated),"inconclusive: 15.8 µM [inhibitor, partial curve, poor fit]"
4,CC(=O)c1ccc(-n2c(-c3cc(-c4ccco4)[nH]n3)n[nH]c2=S)cc1,inactive

# (cont.)

row,SMILES,Potency
1,CN=c1nc(-c2ccccc2)n(-c2ccccc2)s1,inactive
2,Cn1c(N)c(S(=O)(=O)NCc2ccccc2Cl)c(=O)n(C)c1=O,"inconclusive: 100 µM [inhibitor, single point]"
3,O=C1C=C(c2ccc(OC(F)(F)F)cc2)C[C@@H](c2ccc(F)cc2)C1,"inconclusive: 3.55 µM [inhibitor, partial curve, poor fit]"
4,CCOC(=O)c1sc2ncn(CC(=O)NCC3CCCO3)c(=O)c2c1C (configuration not stated),"inconclusive: 39.8 µM [inhibitor, single point]"
5,CCOc1ccc(CC(C(=O)NN)C(=O)NN)cc1CN(C)C,"inconclusive: 89.1 µM [inhibitor, single point]"
6,O=C(CSc1nc2ccccc2c(=O)[nH]1)N1CCOCC1,inactive
7,N=C1CCC(=N)c2c1c(O)c1ccccc1c2O,active: 22.4 µM
8,COc1ccc([N+](=O)[O-])cc1NC(=O)c1csc(C)c1,"inconclusive: 70.8 µM [inhibitor, single point]"
9,O=C(Nc1cccc(Br)c1)c1ccc2snnc2c1,"inconclusive: 100 µM [inhibitor, partial curve, poor fit]"
10,Cc1ccc(S(=O)(=O)NC2c3cccc4cccc(c34)C2Sc2n[nH]c(N)n2)cc1 (configuration not stated),"inconclusive: 112 µM [inhibitor, single point]"
11,COc1ccccc1C=NN1C(=O)CSC1=S,"inconclusive: 28.2 µM [inhibitor, partial curve, poor fit]"
12,Cc1nn(CC(=O)NCc2ccc(N(C)C)cc2)c(=O)c2nn(-c3ccccc3)c(C)c12,inactive
13,Cc1ccc(CS(=O)(=O)c2ncc(Cl)c(C(=O)Nc3ccc(OC(F)F)cc3)n2)cc1,"inconclusive: 22.4 µM [inhibitor, partial curve]"
14,Cc1ccc(C2CC(=O)N3CN(Cc4ccco4)CSC3=C2C#N)cc1 (configuration not stated),"inconclusive: 7.08 µM [inhibitor, full curve, poor fit]"
15,S=C(NCCc1ccccc1)Nc1ccc(Cl)cc1Cl,inactive
16,O=C(Nc1ccc(-c2ccc3nncn3n2)cc1)C1CCCCC1,inactive
17,COc1cc(OC)c(OC)cc1/C=C/c1nc2ccccc2o1,inactive
18,Cc1ccc(CNC(=O)Cn2c3ncccc3c(=O)n2-c2ccc(C)cc2)cc1,"inconclusive: 89.1 µM [inhibitor, partial curve, poor fit]"
19,COc1ccc(CCNC(=O)c2ccccc2Cl)cc1OC,inactive
20,CCSc1ccc(C(=O)Nc2cccc(C)n2)cc1[N+](=O)[O-],"inconclusive: 56.2 µM [inhibitor, partial curve, poor fit]"
21,COc1ccc(N2CCN(C(c3cc(OC)ccc3OC)c3nnnn3CC3CCCO3)CC2)cc1 (configuration not stated),"inconclusive: 20 µM [inhibitor, partial curve, poor fit]"
